PubChem BioAssay AID2417 (National Center for Advancing Translational Sciences (NCATS), 2010)
About 4,300 (3.1%) of roughly 140,000 compounds were called active. The inconclusive results got no clear call from the source; some entries with a clear call stand among them for comparison.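 The calls were made as follows: active = readout at or below -70, meaning at least 70% loss of cells showing the perinucleolar compartment, a nuclear body marking cancer cells; inconclusive = readout between -30 and a set limit; inactive = the rest.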

Experiment: High Content Assay for Compounds that inhibit the Assembly of the Perinucleolar Compartment;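 also: plate controls were DMSO wells for no effect and camptothecin positive control wells for full effect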
Settings: PC3M PTB-GFP, PNC prevalence imaging, 16 h; at 10 µM; stronger effect = lower value
Procedure, shortened: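 PC3M cells stably expressing PTB-GFP, 750–1000 cells/well, treated 16 h at 37 °C with compound (23 nl of library stock), in duplicate. After paraformaldehyde fixation and Hoechst stain, imaged at 20x; PNC prevalence scored by image analysis.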

Row | SMILES | activity change (PNC), negative = inhibition
1 | Cc1cc(C)n(C(=O)CNc2ccc(C)c(C)c2)n1 | inconclusive: -49.7%
2 | O=C(Nc1ccc(N2CCOCC2)cc1)C1(S(=O)(=O)c2ccccc2)CC1 | inconclusive: -32.2%
3 | Cc1cc(C(=O)COC(=O)C2=COCCO2)c(C)n1-c1ccc2c(c1)OCO2 | inactive: -12%
4 | O=C(Nc1ccon1)c1csc2c1CCCC2 | inconclusive: -48.7%
5 | O=C(O)C1C2C=CC(C2)C1C(=O)NCc1ccc2c(c1)OCO2 (stereo not drawn) | inconclusive: -36%
6 | O=C(NCc1ccccc1)C(=O)NCC(c1ccco1)N1CCOCC1 (stereo not drawn) | inconclusive: -44.4%
7 | Cc1cc(=O)oc2ccc(OCC(=O)N3CCC(C)CC3)cc12 | inconclusive: -40.6%
8 | COCc1cc(C)n(CC(=O)NC(C)c2ccccc2)c(=O)c1C#N (stereo not drawn) | inconclusive: -64.6%
9 | O=C1/C(=C/c2cccnc2)SC(=S)N1c1ccc(F)cc1 | inconclusive: -53.5%
10 | Cc1ccc(-n2c(SCC(=O)Nc3cccc(C)c3)nc3c(oc4ccccc43)c2=O)cc1 | inconclusive: -58.7%
11 | COc1ccc(/C=N/n2cc(-c3ccccc3)nc2N)cc1 | inconclusive: -58.1%
12 | Cn1c(=O)c(NCCc2ccccc2)c2c3c(cccc31)C(=O)c1ccccc1-2 | inactive: -12.5%
13 | CC(C)C(=O)Nc1nnc(-c2ccccc2)o1 | inconclusive: -35.1%
14 | Fc1ccccc1CSc1nnc(Cn2cnc3ccccc32)n1-c1ccccc1 | inconclusive: -58.4%
15 | Clc1ccc(-c2nnc3n2CCCC3)cc1 | inactive: 39.8%
16 | N#Cc1c(-c2ccccc2)[nH]c(=S)[nH]c1=O | inconclusive: -43.6%
17 | O=C1c2cccc3cccc(c23)C(=O)N1CCN1CCN(CC(O)COCc2ccc(Cl)cc2)CC1 (stereo not drawn) | inconclusive: -31.6%
18 | CC(NC(=O)COc1cccc(Br)c1)C(=O)O (stereo not drawn) | inactive: 25.5%
19 | COc1ccccc1N(C(=O)c1ccco1)C(C(=O)NC1CCCC1)c1cccnc1 (stereo not drawn) | inconclusive: -79.4%
20 | COc1ccc(OCCSc2nnc(-c3cccnc3)n2N)cc1 | inactive: 22.9%

Taken from above.
Entry of Cc1ccc(-n2c(SCC(=O)Nc3cccc(C)c3)nc3c(oc4ccccc43)c2=O)cc1 under activity change (PNC), negative = inhibition: inconclusive: -58.7%
Entry of O=C(NCc1ccccc1)C(=O)NCC(c1ccco1)N1CCOCC1 (stereo not drawn) under activity change (PNC), negative = inhibition: inconclusive: -44.4%

Additional compounds follow:

Row | SMILES | activity change (PNC), negative = inhibition
21 | c1ccc(-c2nnc(CSc3nncs3)o2)cc1 | inconclusive: -61.9%
22 | C=CCc1ccc(OCCOCCOc2cccc3cccnc23)c(OC)c1 | inactive: 9.04%
23 | CC1CCC/C(=N\NC(=S)NCc2ccccc2)C1 (stereo not drawn) | inactive: 8.73%
24 | N#Cc1cc2c(nc1SCC(=O)Nc1nccs1)CCCCC2 | inconclusive: -33.6%
25 | Cc1ccc(-n2c(-c3c(-c4ccccc4)noc3C)n[nH]c2=S)cc1 | inconclusive: -57.4%
26 | O=[N+]([O-])/C(=C\Nc1ccccc1Cl)S(=O)(=O)c1ccccc1 | inactive: -24.6%
27 | C=CCn1c(=O)c(C(=O)Nc2ccccc2O)c(O)c2ccccc21 | inconclusive: -34.1%
28 | COc1cc(/C=N/NC(=O)c2[nH]nc3c2CCc2ccccc2-3)ccc1O | inactive: 36.4%
29 | CCOc1ccc2nc(N3CCCC(C(=O)N4CCN(CC)CC4)C3)sc2c1 (stereo not drawn) | inactive: -2.85%
30 | N#Cc1ccccc1NC(=O)COC(=O)CSc1nc2ccccc2o1 | inconclusive: -44.2%
31 | O=C(NC1CCCCC1)N1CCCc2ccccc21 | inconclusive: -43.9%
32 | CCOc1ccccc1NC(=O)C(Sc1ccccc1)c1ccccc1 (stereo not drawn) | inactive: -7.9%
33 | Cc1ccc(C(C(=O)NC2CCCC2)N(C(=O)Cc2cccs2)c2ccc(C)c(C)c2)o1 (stereo not drawn) | inconclusive: -52%
34 | O=C(NCCN1C(=O)C2C3C=CC(C3)C2C1=O)Nc1ccc(Br)cc1 (stereo not drawn) | inconclusive: -30.5%
35 | O=C(CNC(=O)C12CC3CC(CC(C3)C1)C2)NC1=NCCS1 | inconclusive: -47.5%
36 | COc1cccc(CNc2ncnc3cc(OC)c(OC)cc23)c1 | inactive: 50.7%
37 | COCCOC(=O)c1c(C)oc2ccc(OC(=O)c3ccc4c(c3)OCO4)cc12 | inactive: -12.8%
38 | Cn1c(=O)[nH]c(=O)c2c1nc(SCC(=O)O)n2CCc1ccccc1 | inconclusive: -79.4%
39 | C=CCN(Cc1cccc(OC)c1OC)S(=O)(=O)N(C)C | inactive: 42%
40 | Cc1cc(C(=O)CSc2nnc(-c3cccs3)o2)c(C)n1-c1ccccc1 | inactive: -15.4%

Row | SMILES | activity change (PNC), negative = inhibition
41 | COc1ccc(NC(=O)/C=C/c2ccccc2)c([N+](=O)[O-])c1 | active: -82.3%
42 | c1cc(-c2cccs2)nc(-c2cccs2)c1 | inconclusive: -53.6%
43 | CCOC(=O)c1nn(-c2ccc(OCC)cc2)c2nc(CC(C)C)c(C#N)c(=O)n12 | inconclusive: -48.8%
44 | CCOC(=O)N1CCN(C(=O)CS(=O)(=O)Cc2nc(-c3ccccc3C)oc2C)CC1 | inconclusive: -56.9%
45 | CCOC(=O)C1CCCN(c2cc(C)nc3cc(-c4ccc(Cl)cc4)nn23)C1 (stereo not drawn) | active: -100%
46 | CCOC(=O)c1sc(N(Cc2ccccc2)C(=O)CSc2ncn[nH]2)nc1C | inconclusive: -32.1%
47 | COc1ccc2c(c1)C(=O)c1ccccc1CO2 | inconclusive: -40.7%
48 | Cc1c(NC(=O)C2CC(c3c(F)cccc3Cl)=NO2)c(=O)n(-c2ccccc2)n1C (stereo not drawn) | inconclusive: -60.5%
49 | COc1ccc(NS(=O)(=O)c2ccc3nc(COc4ccc(Cl)c(C)c4)[nH]c3c2)cc1 | active: -106%
50 | Cc1cc(C)nc(NC(=O)c2cccc([N+](=O)[O-])c2)c1 | inactive: 69%
51 | CCOC(=O)c1c(NC(=O)Cn2cnc([N+](=O)[O-])n2)sc2c1CCC(C)C2 (stereo not drawn) | inactive: 23.4%
52 | COc1ccc(Cl)cc1Nc1nc(-c2sc(NC(=O)CC(C)C)nc2C)cs1 | inconclusive: -32.1%
53 | C/C=C/C(=O)OCC(=O)Nc1cc(-c2cc(C)c(C)cc2C)nn1-c1ccccc1 | inconclusive: -72.7%
54 | O=C(CSc1nnnn1C1CCCC1)Nc1ccc2c(c1)OCCO2 | inconclusive: -69.8%
55 | COC(=O)c1c(NC(=O)COC(=O)CNC(=O)C2CCCCC2)sc(C)c1C | inactive: 75.7%
56 | O=C(Nc1ccc(S(=O)(=O)N2CCCC2)cc1)c1ccc(CN2CCOCC2)cc1 | inconclusive: -45.3%
57 | CCOc1ccccc1N1CCN(Cc2ccc(OC)c(OC)c2)CC1 | inconclusive: -39.3%
58 | CCOc1ccc2noc3c2c1C(=O)c1ccccc1-3 | inconclusive: -47.8%

Nos. 39 through 40, quoted:
Row | SMILES | activity change (PNC), negative = inhibition
39 | C=CCN(Cc1cccc(OC)c1OC)S(=O)(=O)N(C)C | inactive: 42%
40 | Cc1cc(C(=O)CSc2nnc(-c3cccs3)o2)c(C)n1-c1ccccc1 | inactive: -15.4%
